The values that follow come from article PMC11316749.

These are yes or no findings as the source states them, for the method shown. In cells and extracts the contact can be indirect. For part of these data: A result given as binding can be weak or reduced; the word gives no strength.

Assay [1] concerns the target OTUD6^C183A.FLAG.HA (Drosophila (endogenous locus, fly heads)). Kind of assay: co-IP; anti-FLAG IP of tagged OTUD6 and OTUD6^C183A (untagged OTUD6^C183A as control) from Drosophila lysate in the presence of cycloheximide, western for RPS7, RPL11 and eIF2α.
In assay [2] the target is OTUD6.FLAG.HA (Drosophila (endogenous locus)). The description is as above.
The target of assay [3] is OTUD6^C183A.FLAG.HA (Drosophila (endogenous locus, fly heads)). As to the kind of experiment: co-IP; anti-FLAG IP of OTUD6^C183A.FLAG.HA from Drosophila lysate, western detection.

B1: non-ubiquitinated RPS7 (protein, UniProt Q9VA91 1-194)
chain: MAIGSKIIKPGGSDPDDFEKSIAQALVELEANSDLKPYLRDLHITRAREIEFGSKKAVIIYVPIPQQKVFQKIQIILVRELEKKFSGKHVVVIAERKILPKPTRKARNPLKQKRPRSRTLTAVYDAILEDLVFPAEIVGKRIRVKLDGSQLVKVHLDKNQQTTIEHKVDTFTSVYKKLTGRDVTFEFPDNYLNV
Turning to B1, the binding entry in assay [1] and in assay [2] was “no binding” each time.

B2: DIS3 (enzyme, UniProt Q9VC93 1-982)
chain: MQTLREFTRKTKRGNILKIVREHYLRDDIGCGSELCRECFQNEVYQLTSQHANKSTLFKFPHYLVLDTNVVLDQIDVLEEDVLRNVVVLTTVLNEVKHRSSAIYKRFNEIVHDRTRNFYVFVNEHHKETYADREPDETANDRNDRAIRLATKWYDDHLQASQSSKEFERSGKAATRVVLLTDDAANRAKAEAEGILVTTAAEYVKSLEDFPLLMDKLSHKTFDSEKNGLPQYPPHLSMKELLEGLRQNKLLQGTFQASRENYLEGTVNVEKFEKGILIQGRESLNRAVDGDLVAVELLPEAEWSAPSEIVLEEKNVYADEVPSEERAKDENEMLNQVRAAALSAERTPTGRIVGIVRRKWRQYCGILQPSLIEDTNRHIFVPADRKIPRIRIETRQAAMLQNQRIIVTIDTWPRNSRYPHGHFVRSLGPLGDMATENEVILLEHDVPHCKFSDEVLSFLPKMPWTITDEDYSKRVDLRDLYICSVDPPGCTDIDDALHCKELPNGNLEVGVHIADVSHFIRPGNALDMEAAARGTTVYLVGKRIDMVPELLSSNLCSLVGGVERFAFSCVWEVDNEANVLSKRFHKSVIKSKRAMTYEEAQNIIDDATQQNEIAKSLRNLNRLAKILKKRRMDNGALVLASPEIRFQVDSETHEPLEVEVKQMRETNSMVEEFMLLANITVAEHIATEFSECAVLRRHPRPPPTNFDPLVKSARYQGFQVDINSGLELSHSLDKCVKADNPYFNTMIRILTTRCMMQAVYFISGSLQKEEFFHYGLAAPIYTHFTSPIRRYSDIMVHRLLAASIGADSTYAQLLDRKSNEELCHNLNYRHKMAQYAGRASVALNTHLFFRGKEEDEEGYVLFVRKNALQVLIPKYGLEGTLYLKSDKDGKDGVERVKSEIVFTFNEEDHTQRCGDVVFHSFDPVTVRLSLDSSNVQHEKLIFRLVKPYIKGFSVETTTEGTDSQAVSAAPPSKKTKKDKKKK
As to B2, in assay [3], the binding result is given as “binds”.
